Results taken from article PMC10163288.
Some of the results follow.

B1: il10ra_site1_normal_mot_HHH_b2_04742_000000132_0001_1_17_H_._4b1d40a09f4e66830ace03c15345b22d_0001_1_af2_0001_0000300017_0000001_0 (protein)
chain: DDIFKLQAELAAKDPKVLEAISERAREAKEEGDEQHFRTFLLLLQLVVELYGDPEAKELLEELEK
B2: il10ra_site1_sap_17_mot_e1dd4851c59bc1cdde016f988f6856bd_0001_1_000000200_0001_16_31_H_._b5d408fb59e05adbbadd706aaa09cbfb_0001_0001_0000700012_0000001_0_0001 (protein)
chain: SSSSDKEDRELIKAAIRLAKQAYEAGNDESARLILWAAEFLAEELGDEELRREIEELAEEISSSS
B3: il10ra_site1_sap_11_mot_HHH_b2_02287_000000121_0001_1_22_H_._HHH_b2_06223_af2_0001_0000400021_0000001_1_0001 (protein)
chain: SELEEARELVEEDPEEVAKEAREIARERGDPQMEETLELLLEAIERDPDNRAALYLLAQALAALR
B4: il10ra_site1_normal_mot_HHH_b2_06399_000000160_0001_1_19_H_._HHH_b1_05237_0001_0000100001_0000001_0 (protein)
chain: SSSSDVLEEVHRLIREAVELLQEGNPEEARKVIEEAVELAEENNNEVALIQAEFLARTIESSSSS
B5: il10ra_site1_sap_19_mot_HHH_b2_00076_000000055_0001_40_55_H_._HHH_b1_00748_0001_0000500032_0000001_0_0001 (protein)
chain: SSSSDEEVRELLEEAEELLEEGNPEEALEVVFRATHAAIQAQDPELLRLVWELVREVAKVSSSSS
B6: il10ra_site1_sap_15_mot_HHH_b1_08311_000000105_0001_40_57_H_._HHH_b2_03279_af2_0001_0000300013_0000001_0_0001 (protein)
chain: SSSSSDEAQELFEILREAIELMSQGNPEEAEELLEKARELAERLGNRVFRWLVEWLLERLSSSSS
B7: il10ra_site1_sap_23_mot_HHH_b2_02736_000000092_0001_22_38_H_._HHH_b1_07390_af2_0001_0000300014_0000002_0_0001_af2pred_0001 (protein)
chain: SSSSSEVEETIRVLLRAIRELIKRDPERARLAIRDAKVAIEHANDPELEKLLEELEEELESSSSS
B8: il10ra_site1_sap_18_mot_HHH_b1_01886_000000262_0001_1_18_H_._HHH_b2_01511_0001_0000100015_0000001_0_0001 (protein)
chain: SSSSSSDEEEEVEELVEQAEKIEDEEKVIRLLLRAVQLALRLSDPELLHLVWRVFKELSSSSSSS
B9: il10ra_site1_normal_mot_HHH_b1_06786_000000000_0001_1_20_H_._HHH_b2_07016_0001_0000100007_0000001_0 (protein)
chain: SSSSTEESQEVQKLLREAAQLRHKNPEEAEELAEEALRLAREAGNEVLEFSAERMLRALRSSSSS
B10: il10ra_site1_normal_mot_HHH_b2_06979_000000158_0001_42_57_H_._HHH_b1_06291_0001_0000100010_0000001_0 (protein)
chain: SSSSDLSQRIIELIRQAAELLRKGNPEEAEKVLEEAEELAEERNNELLLINVRFLLRDINSSSSS
B11: il10ra_site1_sap_16_mot_HHH_b2_00093_af2_000000025_0001_40_54_H_._HHH_b1_03751_0001_0001000047_0000001_0_0001_af2pred_0001 (protein)
chain: SSSSSEEERFYQLLLEALRLARRLNDEEVEEELRELLEEYKQKGDPRVEERIEELLKELRSSSSS
B12: il10ra_site1_sap_26_mot_HHH_b1_04771_000000013_0001_40_56_H_._HHH_b2_07490_af2_0001_0000100003_0000002_0_0001 (protein)
chain: SSSNKEVYERLAELVKEALERLVQAGDREEAERFFRIVENFLRSANNPEVLEELEELFERLSSSS
B13: il10ra_site1_normal_mot_HHH_b1_05672_af2_000000246_0001_1_19_H_._ems_3hC_444_af2_0001_0000400050_0000001_0 (protein)
chain: SSDLREEFSRVLIRAVRAAARHDEEKAEELVRRAEEIAEELGDEELERYVEIVKNFVESATRSSS
B14: il10ra_site1_normal_mot_HHH_b2_03434_000000017_0001_1_19_H_._HHH_b1_00041_0001_0000100004_0000002_0 (protein)
chain: SSSDEAYEVVRRAIEEASKLLRNGNPEEAQKVVEEAIEIVEELGNFVARFSLRHLLRVIRNSSSS
B15: il10ra_site1_normal_mot_05ca327611f5605f0dd8494b449afcbf_0001_1_000000248_0001_35_51_H_._HHH_b1_05043_0001_0000300012_0000001_1 (protein)
chain: SSSSSDENQELQRLLREVAELRNNGNPEEAQRLLREVLELAEELNNLTFQFAIRHLLRDLESSSS
B16: il10ra_site1_normal_mot_HHH_b2_07440_af2_000000021_0001_1_18_H_._HHH_b1_07881_0001_0000200007_0000001_0 (protein)
chain: SSSSDEEDEEVLELSKEAFRLALRGNPEEAREVLEQALELAREIGDERLVRVIEDLLRVDSSSSS
B17: il10ra_site1_normal_mot_HHH_b1_05056_000000217_0001_1_20_H_._HHH_b2_06556_0001_0000100001_0000002_0 (protein)
chain: SSSSSSTKEEVEELLEEAEEIEDPEERAEVLLRATHIALRHSDEEALQLVWKVVKRLGSSSSSSS
B18: il10ra_site1_sap_13_mot_0eddeacbb14b769e73e254714f31e2f9_0001_af2_000000203_0001_37_51_H_._61cd5d5803be15ec78ac877bda6c130b_0001_1_0001_0000300012_0000001_0_000 … (protein)
chain: SSSSDAHEIYELIREAAELLADGNPEEARRVLEEVLELAEEANNPVLLKNIRFLLKLIEDSSSSS
B19: il10ra_site1_normal_mot_HHH_b1_07380_000000129_0001_1_20_H_._HHH_b1_02231_0001_0000200026_0000001_0_af2pred_dldesign_0_af2pred (protein)
chain: SSSSSPTSERLVELITKAAELLGEGKPEEAKKVLDEARALAEAAGDEIFLRTVDYLLRHVESSSS
B20: il10ra_site1_sap_24_mot_HHH_b2_07006_000000108_0001_1_19_H_._HHH_b2_07019_0001_0000100023_0000001_0_0001 (protein)
chain: SSSSSDEEEILRLSVEAFRAALRGDKEEAEKLLERAEELAEEAGNERALEMIRNLLKSVRSSSSS
B21: il10ra_site1_sap_30_mot_HHH_b1_02809_af2_000000277_0001_40_57_H_._3c52c70cb82747e000e16ffcb2ba7c63_0001_af2_0001_0000500026_0000003_0_0001 (protein)
chain: SSSSTEADRVYRLIEEAMELSRKDPEEAEEVLEEAKRIAEELGNWVFRIQIEFLEKDIEKLSSSS
B22: il10ra_site1_normal_mot_HHH_b1_05185_000000011_0001_22_39_H_._HHH_b2_02890_0002_0000100007_0000002_0_af2pred_0001 (protein)
chain: SSSSSVAERAVEILLKAAKEIEDPEKVKLTLRDAKAAAKAANNEELERKIEEVERELEELLSSSS
B23: il10ra_site1_normal_mot_HHH_b2_00134_af2_000000004_0001_38_52_H_._HHH_b1_02048_af2_0001_0000100003_0000001_0 (protein)
chain: SSSSDLEEKARRLAEEIAEELGLSEEQERLLEKSAERQAKQGASEEAIELALRLQARSLKSSSSS
B24: il10ra_site1_sap_13_mot_HHH_b2_00230_000000227_0001_1_19_H_._HHH_b1_08620_af2_0001_0000100004_0000001_0_0001 (protein)
chain: SSSSDEELREVFELLERAAKLDSNGNPEEAKELLREAEKLVKEINNRLLLWQIEWILELLGSSSS
B25: il10ra_site1_sap_22_mot_HHH_b2_04001_000000102_0001_19_36_H_._HHH_b2_07017_af2_0001_0000900029_0000001_0_0001 (protein)
chain: SSSSDKEENEELLEELERLIEEGDRERALELAQEAIHILIQNSDPEALHLLWELVKEIAKISSSS
B26: il10ra_site1_normal_mot_HHH_b2_00622_af2_000000153_0001_40_57_H_._HHH_b2_05560_0001_0000500016_0000001_0_af2pred_0001 (protein)
chain: SSSSSEEFEELRKELEELLKEVEELGDPRAVRALRILLRAAEELNDPQALRFALHLAKALLSSSS
B27: il10ra_site1_normal_mot_HHH_b2_04680_000000215_0001_1_16_H_._HHH_b1_06063_0001_0000100007_0000001_0_af2pred_0001 (protein)
chain: SSSSSDREERLRRVLELLRKIFESDDPEEREELLEEAERLIEEAGNELLRLQLELLRRAISSSSS
B28: il10ra_site1_normal_mot_HHH_b2_08144_af2_000000046_0001_38_52_H_._HHH_b1_07320_0001_0000500026_0000001_0_af2pred_0001 (protein)
chain: SSSSSSALERIVELLRELAELLQEGDEERIEELEEEIERLIEEANNVLAKFLLESLRRRQSSSSS
B29: il10ra_site1_sap_11_mot_HHH_b2_03450_000000073_0001_38_52_H_._HHH_b1_04135_af2_0001_0000100001_0000001_0_0001 (protein)
chain: SSSSDEARRRIYELSRRVAELDSEGDEEEAEELLEEARELAEEAGDMVFEKVIEHLRRQVSSSSS
B30: il10ra_site1_normal_mot_HHH_b2_06795_000000133_0001_42_56_H_._HHH_b2_07274_0001_0000100009_0000001_0 (protein)
chain: SSSSDEAVHEAAQLFQRFLRITDEEELQEILERIRELAEETNDERIRQSLKFLELLLRARSSSSS
B31: il10ra_site1_normal_mot_HHH_b2_03220_af2_000000223_0001_23_40_H_._HHH_b1_01997_0001_0000200011_0000002_0 (protein)
chain: SSSSSTEENEEIWELLRRALQIPDKEEAERLVEEAIEIAEEANNEVLLIQARFALRAIKLSSSSS
B32: il10ra_site1_normal_mot_HHH_b1_05052_000000015_0001_1_19_H_._HHH_b1_01305_af2_0001_0000100005_0000002_0 (protein)
chain: SSSSDEAFEIAERAIRETIQLLEEGDEEEAEKVLEEALRLLEEAGNQTAAWSVRHLLRLTSSSSS
B33: il10ra_site1_sap_13_mot_HHH_b2_01447_af2_000000258_0001_1_20_H_._HHH_b2_05150_0001_0000300020_0000001_0_0001_af2pred_0001 (protein)
chain: SSSSSEVERLLEEAEEAARRGDEERAYHLLLEAFRLARELGDPELRELVHELAVRIARLTSSSSS
B34: il10ra_site1_sap_14_mot_HHH_b2_00564_af2_000000012_0001_18_34_H_._HHH_b1_01168_0001_0000500034_0000001_0_0001 (protein)
chain: SSSSDEERLRLSLRFAKALERNGDPEAAERILKAALDIARRAGDEELQEEIEELLEKLRGSSSSS
B35: il10ra_site1_sap_10_mot_HHH_b2_03346_af2_000000019_0001_1_18_H_._HHH_b1_04552_af2_0001_0000300037_0000001_0_0001_af2pred_dldesign_0_af2pred (protein)
chain: SRREELTRLLRELGVPERTIHAMTVAIEKGEEAGLPEEEILQRLRATARLHADPRALEAIERLLE
B36: il10ra_site1_normal_mot_HHH_b2_05343_000000235_0001_19_35_H_._HHH_b1_02977_af2_0001_0000600014_0000001_0 (protein)
chain: SSSSDRERVEELLERLEEALENNDSQLAFELIREAIELATKSRDPELQELVQEMIELLLRSSSSS
B37: il10ra_site1_normal_mot_HHH_b1_03333_000000091_0001_1_17_H_._HHH_b2_02982_af2_0001_0000400019_0000001_0 (protein)
chain: SSSSSEIYRKTKEAIERAAQLFREGNEEEAEELLEEVLREVRELGNEALEWSLEHLLRLLSSSSS

Target: il10ra, Q13651
Assay: yeast display titration

Apparent Kd, inactive:
B1 no binding seen
B2 no binding seen
B3 no binding seen
B4 no binding seen
B5 no binding seen
B6 no binding seen
B7 no binding seen
B8 no binding seen
B9 no binding seen
B10 no binding seen
B11 no binding seen
B12 no binding seen
B13 no binding seen
B14 > 1.18 µM
B15 no binding seen
B16 no binding seen
B17 no binding seen
B18 no binding seen
B19 no binding seen
B20 no binding seen
B21 no binding seen
B22 no binding seen
B23 no binding seen
B24 no binding seen
B25 no binding seen
B26 no binding seen
B27 no binding seen
B28 no binding seen
B29 > 0.894 µM
B30 no binding seen
B31 no binding seen
B32 no binding seen
B33 no binding seen
B34 no binding seen
B35 no binding seen
B36 no binding seen
B37 no binding seen

No new results follow: entries from further up.
Apparent Kd, inactive:
B25 no binding seen
B26 no binding seen
